The list does not hold the whole screen: it is rich in T/C values a quarter to a half above the control, in often repeated tests (any T/C) and in doses without a T/C. Further doses and runs are listed elsewhere. T/C gives the treated animals as a percentage of the vehicle group. Some entries give survivors of the animals treated and no T/C: the source holds a T/C of zero for them, seemingly a mark for toxic or unscored doses. Some doses without a T/C left all or most animals alive at the check, yet need not have been tolerated: the source hardly ever lists a survival T/C far under the control, and the zero likely stands for such cases as well. Counts of survivors are from the toxicity check (mostly the fifth day) where no day follows; animals may have died later. Schedule codes are those of the source, taken here to give the interval after Q, in days (D) or hours (H), and the number of doses after X. Some entries were tested several times; the results are listed from low to high. Where survival is the endpoint, this PubChem deposit counts one and a half times the control or more as active, and values a quarter to a half above the control carry no call in these data; other NCI protocols may use other cut-offs. Some T/C values are followed by the survivors on the day toxicity was checked, most often the fifth; without a count, all were alive then.
Test system: CD2F1 mice, L1210 leukemia ip, survival T/C
Experiment: NCI In Vivo Anticancer Drug Screen. Data for tumor model L1210 Leukemia (intraperitoneal) in CD2F1 (CDF1) mice
Conditions: higher T/C = longer survival
Procedure, shortened: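 Each value reflects a quotient of treated over vehicle control outcomes in mice with a transplanted tumor.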

[1] = T/C endpoint: mean survival time, dose: 200.0 mg/kg/injection, schedule: Q01DX009 (ip), vehicle: saline with Tween-80
[2] = T/C endpoint: mean survival time, dose: 100.0 mg/kg/injection, schedule: Q01DX009 (ip), vehicle: saline with Tween-80
[3] = T/C endpoint: mean survival time, dose: 200.0 mg/kg/injection, schedule: Q04DX002 (ip), vehicle: saline with Tween-80
[4] = T/C endpoint: mean survival time, dose: 400.0 mg/kg/injection, schedule: Q04DX002 (ip), vehicle: saline with Tween-80
[5] = T/C endpoint: mean survival time, dose: 200.0 mg/kg/injection, schedule: Q01DX001 (ip), vehicle: saline with Tween-80
[6] = T/C endpoint: mean survival time, dose: 200.0 mg/kg/injection, schedule: Q04DX003 (ip), vehicle: saline with Tween-80
[7] = T/C endpoint: mean survival time, dose: 400.0 mg/kg/injection, schedule: Q04DX003 (ip), vehicle: saline with Tween-80
[8] = T/C endpoint: mean survival time, dose: 400.0 mg/kg/injection, schedule: Q01DX001 (ip), vehicle: saline with Tween-80
[9] = T/C endpoint: mean survival time, dose: 100.0 mg/kg/injection, schedule: Q04DX003 (ip), vehicle: saline with Tween-80
[10] = T/C endpoint: mean survival time, dose: 50.0 mg/kg/injection, schedule: Q01DX009 (ip), vehicle: saline with Tween-80
[11] = T/C endpoint: mean survival time, dose: 400.0 mg/kg/injection, schedule: Q01DX009 (ip), vehicle: saline with Tween-80
[12] = T/C endpoint: mean survival time, dose: 300.0 mg/kg/injection, schedule: Q01DX001 (ip), vehicle: saline

Structure (SMILES): COc1ccc2c(c1OC(C)=O)-c1cc(O)cc3c1C(C2)N(C(=O)CN(CCCl)CCCl)CC3 (stereo not drawn)
- survivor count (T/C endpoint: mean survival time, dose: 100.0 mg/kg/injection, schedule: Q04DX003 (ip), vehicle: DMSO): 5 of 6

Structure (SMILES): CC(C(=O)c1ccccc1)C(c1ccccc1)P(=O)(c1ccccc1)c1ccccc1 (stereo not drawn)
- survivor count [1]: 3 of 6

Structure (SMILES): Cc1cc2cc3cc(C)c(N)cc3nc2cc1N
- survivor count [2]: 2 of 6

Structure (SMILES): Oc1ccc(/C=N/NC(=S)NN2CCOCC2)nc1
- T/C (T/C endpoint: mean survival time, dose: 50.0 mg/kg/injection, schedule: Q04DX002 (ip), vehicle: saline with Tween-80): 133 % of control
- survivor count [3]: 1 of 3
- survivor count [4]: 0 of 3

Structure (SMILES): O=c1[nH]cc(S(=O)(=O)Nc2ccccc2)c(=O)[nH]1
- survivor count [5]: 2 of 6

Structure (SMILES): CCN1c2ccccc2Sc2cc(C=O)ccc21
- survivor count (T/C endpoint: mean survival time, dose: 200.0 mg/kg/injection, schedule: Q01DX009 (ip), vehicle: Klucel (hydroxypropylcellulose) (HPC)): 3 of 3

Structure (SMILES): CN(C)C=NC1(c2ccccc2)CCCCC1
- survivor count [6]: 2 of 6
- survivor count [7]: 0 of 6

Structure (SMILES): C/C=C(\NC1CCCCC1)C(=O)c1ccccc1
- survivor count (T/C endpoint: mean survival time, dose: 400.0 mg/kg/injection, schedule: Q01DX009 (ip), vehicle: Klucel (hydroxypropylcellulose) (HPC)): 3 of 6

Structure (SMILES): CC1CC(C)(C)N=C(C(C)CC2CCCCC2)O1 (stereo not drawn)
- survivor count [8]: 1 of 6

Structure (SMILES): CN1C(C)(C)CC(CN2c3ccccc3Sc3ccccc32)C1(C)C (stereo not drawn)
- survivor count [7]: 0 of 6

Structure (SMILES): O=C(O)C(/C=C/c1ccccc1)c1ccccc1 (stereo not drawn)
- survivor count [1]: 3 of 6

Structure (SMILES): Nc1nc(/C=C(/O)c2ccccc2)c2ncn(C3OC(CO)C(O)C3O)c2n1 (stereo not drawn)
- T/C (T/C endpoint: mean survival time, dose: 50.0 mg/kg/injection, schedule: Q01DX005 (ip), vehicle: distilled water + Tween-80): 129 % of control
- T/C (T/C endpoint: mean survival time, dose: 100.0 mg/kg/injection, schedule: Q01DX005 (ip), vehicle: distilled water + Tween-80): 137 % of control [4 of 6 alive]
- survivor count (T/C endpoint: mean survival time, dose: 200.0 mg/kg/injection, schedule: Q01DX005 (ip), vehicle: distilled water + Tween-80): 0 of 6 and 2 of 6
- survivor count (T/C endpoint: mean survival time, dose: 400.0 mg/kg/injection, schedule: Q01DX005 (ip), vehicle: distilled water + Tween-80): 0 of 6
- survivor count (T/C endpoint: mean survival time, dose: 400.0 mg/kg/injection, schedule: Q01DX009 (ip), vehicle: distilled water + Tween-80): 0 of 6
- T/C (T/C endpoint: median survival time, dose: 200.0 mg/kg/injection, schedule: Q01DX009 (ip), vehicle: distilled water + Tween-80): 133 % of control [4 of 6 alive]

Structure (SMILES): OC(Cc1cccc(/C=N/N2CCOCC2)n1)(C(F)(F)F)C(F)(F)F
- survivor count [9]: 6 of 6

Structure (SMILES): Cc1cn(C2CC(O)C(CO)O2)c(=O)nc1NC1CCCCCCCCCCC1 (stereo not drawn)
- survivor count (T/C endpoint: median survival time, dose: 200.0 mg/kg/injection, schedule: Q01DX005 (ip), vehicle: distilled water + Tween-80): 2 of 6

Structure (SMILES): Nc1nc(N)c(-c2ccc(Cl)c(Cl)c2)c(CBr)n1
- survivor count [10]: 2 of 3

Structure (SMILES): C=C(C)CSC#N
- survivor count [6]: 3 of 6
- survivor count [7]: 0 of 6

Structure (SMILES): CCOc1ccc(OCC)c(NC(=O)Nc2cccc(Cl)c2)c1
- survivor count [3]: 3 of 3
- survivor count [4]: 3 of 3

Structure (SMILES): CSc1nccc2ccccc12
- survivor count (T/C endpoint: mean survival time, dose: 200.0 mg/kg/injection, schedule: Q01DX009 (ip), vehicle: other): 1 of 6

Structure (SMILES): CN1CCCC1CCNc1nc(Nc2ccc(Cl)c(Cl)c2)nc2ccc(Cl)cc12 (stereo not drawn)
- survivor count [10]: 2 of 6
- survivor count [2]: 0 of 6
- survivor count [5]: 1 of 6
- survivor count [8]: 0 of 6

Structure (SMILES): Nc1ccc2cc(Cl)ccc2c1
- survivor count [1]: 4 of 6
- survivor count [7]: 0 of 6

Structure (SMILES): COc1ccccc1NC(=O)Oc1ccc2ccccc2c1
- survivor count [4]: 3 of 3

Structure (SMILES): CC(=O)Nc1nc2ncc(/C=C/c3ccccc3)nc2c(=O)[nH]1
- survivor count (T/C endpoint: mean survival time, dose: 300.0 mg/kg/injection, schedule: Q01DX001 (ip), vehicle: other): 2 of 6

Structure (SMILES): CC(C)=CCOC1=CC(=O)C(=O)c2ccccc21
- survivor count [5]: 0 of 6
- survivor count [8]: 0 of 6

Structure (SMILES): COc1cc2c(c(OC)c1OC)-c1ccc(SC)c(=O)cc1[C@@H](NC(=O)NCCCl)CC2
- T/C (T/C endpoint: mean survival time, dose: 25.0 mg/kg/injection, schedule: Q01DX005 (ip), vehicle: water): 143 % of control
- T/C (T/C endpoint: mean survival time, dose: 25.0 mg/kg/injection, schedule: Q01DX009 (ip), vehicle: water): 136 % of control [5 of 6 alive]
- T/C (T/C endpoint: mean survival time, dose: 50.0 mg/kg/injection, schedule: Q01DX009 (ip), vehicle: water): 129 % of control [4 of 6 alive]
- survivor count (T/C endpoint: mean survival time, dose: 100.0 mg/kg/injection, schedule: Q01DX009 (ip), vehicle: water): 3 of 6

Structure (SMILES): Nc1[nH]c(=O)ncc1C(=O)NC(CO)C(=O)O (stereo not drawn)
- survivor count [2]: 2 of 6
- survivor count [1]: 0 of 6
- survivor count [11]: 0 of 6

Structure (SMILES): Cc1c2[nH]c(c1CCC(=O)O)/C=c1\[n-]/c(c(C)c1CCC(=O)O)=C\c1[n-]c(c(C)c1C(C)O)/C=c1\[nH]/c(c(C)c1C(C)O)=C\2.[Cl][Pt+2][Cl] (stereo not drawn)
- survivor count (T/C endpoint: mean survival time, dose: 200.0 mg/kg/injection, schedule: Q04DX003 (ip), vehicle: Klucel (hydroxypropylcellulose) (HPC)): 4 of 4

Structure (SMILES): CN1C(=O)CCSC1=S
- survivor count (T/C endpoint: mean survival time, dose: 100.0 mg/kg/injection, schedule: Q04DX002 (ip), vehicle: saline with Tween-80): 3 of 3
- survivor count [3]: 3 of 3
- survivor count [4]: 3 of 3

Structure (SMILES): CC(C)CCC(=O)c1ccccc1
- survivor count [4]: 3 of 3

Structure (SMILES): CCc1ccc(C(C)(C)C)cc1
- survivor count [7]: 6 of 6

Structure (SMILES): CC(C)(C)c1ccc(OCC(=O)O)cc1
- survivor count (T/C endpoint: mean survival time, dose: 400.0 mg/kg/injection, schedule: Q04DX003 (ip), vehicle: other): 0 of 6

Structure (SMILES): CC1CC[N-]CC1.CC1CC[N-]CC1.CC1CC[N-]CC1.CC1CC[N-]CC1.[Cl][Rh][Cl]
- survivor count (T/C endpoint: mean survival time, dose: 200.0 mg/kg/injection, schedule: Q01DX009 (ip), vehicle: saline sonified): 5 of 6
- survivor count [7]: 0 of 6

Structure (SMILES): C[CH2][Sn]([CH2]C)([O]S(C)(=O)=O)[O]S(C)(=O)=O
- survivor count (T/C endpoint: mean survival time, dose: 25.0 mg/kg/injection, schedule: Q01DX009 (ip), vehicle: saline): 0 of 6

Structure (SMILES): OC(c1ccccc1)(c1ccccc1)c1ccccc1C(O)(c1ccccc1)c1ccccc1
- survivor count (T/C endpoint: mean survival time, dose: 400.0 mg/kg/injection, schedule: Q01DX001 (ip), vehicle: Klucel (hydroxypropylcellulose) (HPC)): 3 of 3

Structure (SMILES): Nc1[nH]c(=O)ncc1C(=O)NCC(=O)O
- survivor count [2]: 0 of 6
- survivor count [1]: 0 of 6
- survivor count [11]: 2 of 6

Structure (SMILES): COc1cc(OC)c2c(c1Cl)OC(C(C)=O)C2=O (stereo not drawn)
- survivor count [7]: 6 of 6

Structure (SMILES): COc1cc([C@@H]2c3cc4c(c(O)c3C[C@H]3COC(=O)[C@@H]32)OCO4)cc(OC)c1OC
- T/C (T/C endpoint: mean survival time, dose: 1000.0 micrograms/kg/injection, schedule: Q01DX009 (ip), vehicle: saline): 126 % of control

Structure (SMILES): COC(=O)C#CC(N)=O
- survivor count (T/C endpoint: mean survival time, dose: 10.0 mg/kg/injection, schedule: Q04DX003 (ip), vehicle: saline sonified): 0 of 6
- survivor count (T/C endpoint: mean survival time, dose: 20.0 mg/kg/injection, schedule: Q04DX003 (ip), vehicle: saline sonified): 0 of 6
- survivor count [9]: 0 of 6
- survivor count [6]: 0 of 6
- survivor count [7]: 0 of 6

Structure (SMILES): O=C1c2ccccc2C[CH]1[Hg][Cl] (stereo not drawn)
- survivor count (T/C endpoint: mean survival time, dose: 75.0 mg/kg/injection, schedule: Q01DX001 (ip), vehicle: saline): 0 of 6
- survivor count (T/C endpoint: mean survival time, dose: 150.0 mg/kg/injection, schedule: Q01DX001 (ip), vehicle: saline): 0 of 6
- survivor count [12]: 0 of 6

Structure (SMILES): CC(C)=CN(C)C (tested in a mixture with another compound)
- survivor count (T/C endpoint: mean survival time, dose: 100.0 mg/kg/injection, schedule: Q01DX001 (ip), vehicle: saline): 2 of 6
- survivor count (T/C endpoint: mean survival time, dose: 200.0 mg/kg/injection, schedule: Q01DX001 (ip), vehicle: saline): 0 of 6
- survivor count (T/C endpoint: mean survival time, dose: 400.0 mg/kg/injection, schedule: Q01DX001 (ip), vehicle: saline): 0 of 6

Structure (SMILES): COc1cccc(NC2=NCCO2)c1
- survivor count [7]: 2 of 6

Structure (SMILES): CSc1ccc(O)c(C)c1
- survivor count [2]: 3 of 6
- survivor count [11]: 2 of 6

Structure (SMILES): N#CCCCCCN=[N+]=[N-]
- survivor count [12]: 0 of 6

Structure (SMILES): Nc1ccc(CSc2ccc(Cl)cc2)cc1
- survivor count (T/C endpoint: mean survival time, dose: 100.0 mg/kg/injection, schedule: Q04DX002 (ip), vehicle: Klucel (hydroxypropylcellulose) (HPC)): 3 of 3
- survivor count (T/C endpoint: mean survival time, dose: 200.0 mg/kg/injection, schedule: Q04DX002 (ip), vehicle: Klucel (hydroxypropylcellulose) (HPC)): 3 of 3
